These are yes or no findings as the source states them, for the method shown. A result given as binding can be weak or reduced; the word gives no strength.
Tests used:
HLA-A*0201 (human) = assay: fluorescence polarization competition, test peptide at 100 µM
[1] = biological target: soluble HLA-B*0702 (human); assay: fluorescence polarization competition

Row | binding (HLA-A*0201 (human)) | binding [1] | Binder
1 | binds | – | SVAPPPEEV [C35 peptide S9 to V17]
2 | binds | – | SGVRIVVEY [C35 peptide S21 to Y29]
3 | binds | – | TYLELASAV [C35 peptide T38 to V46]
4 | – | binds | NSRPPAVIL [C35 peptide N107 to L115 (analog with Ala substituted for Cys at 112)]
5 | – | binds | TGAFEIEIN [C35 peptide T62 to N70]

Second part, the binder before the results:

Row | Binder | binding (HLA-A*0201 (human)) | binding [1]
6 | FEIEINGQL [C35 peptide F65 to L73] | binds | –
7 | GTGAFEIEI [C35 peptide G61 to I69] | binds | –
8 | EPGQTSVAP [C35 peptide E4 to P12] | – | binds
9 | GAFEIEING [C35 peptide G63 to G71] | – | binds

From patent publication US20090297440A1
